Assay: general procedure: solution-phase peptide synthesis; DCC/HONB or DCC/HOBt; Z-Tyr-ONB active ester

Substance	step yield (late stage modification step)	step yield (coupling step)
BOC-Tyr-(D)-Met(O)-Gly-MePhe-NHNHCONH2	88%	–
BOC-Tyr-(D)-Met-Gly-MePheNHNHCONH2	–	31%
Z-Tyr-(D)-Ala-Gly-MePhe-NHNHCONH2	–	45.2%
